No constants are given. Whether binding was seen depends on the method and setting. Binding seen in cells or lysates may run through a third protein. A yes stands for co-enrichment or nearness to the bait. Other partners may have been found. Where a sequence is shown, tags or fusion partners need not be part of it.
B1: FloT (protein, UniProt O32076 1-509)
chain: MTMPIIMIIGVVFFLLIALIAVFITKYRTAGPDEALIVTGSYLGNKNVHVDEGGNRIKIVRGGGTFVLPVFQQAEPLSLLSSKLDVSTPEVYTEQGVPVMADGTAIIKIGGSIGEIATAAEQFLGKSKDDREQEAREVLEGHLRSILGSMTVEEIYKNREKFSQEVQRVASQDLAKMGLVIVSFTIKDVRDKNGYLESLGKPRIAQVKRDADIATAEADKETRIKRAEADKDAKKSELERATEIAEAEKINQLKMAEFRREQDTAKANADQAYDLETARARQQVTEQEMQVKIIERQKQIELEEKEILRRERQYDSEVKKKADADRYSVEQSAAAEKAKQLAEADAKKYSIEAMAKAEAEKVRIDGLAKAEAEKAKGETEAEVIRLKGLAEAEAKEKIAAAFEQYGQAAIFDMIVKMLPEYAKQAAAPLSNIDKITVVDTGGSGESSGANKVTSYATNLMSSLQESLKASSGIDVKEMLENFSGKGNVKQSINELTNEIKEAKTIQKSE
B2: NupN (protein, UniProt O05252 23-359)
chain: CGNSEKSSGSGEGKNKFSVAMVTDVGGVDDKSFNQSAWEGIQAFGKENGLKKGKNGYDYLQSKSDADYTTNLNKLARENFDLIYGVGYLMEDSISEIADQRKNTNFAIIDAVVDKDNVASITFKEQEGSFLVGVAAALSSKSGKIGFVGGMESELIKKFEVGFRAGVQAVNPKAVVEVKYAGGFDKADVGKATAESMYKSGVDVIYHSAGATGTGVFTEAKNLKKEDPKRDVWVIGVDKDQYAEGQVEGTDDNVTLTSMVKKVDTVVEDVTKKASDGKFPGGETLTYGLDQDGVGISPSKQNLSDDVIKAVDKWKKKIIDGLEIPATEKELKTFKAE
B3: FtsA (protein, UniProt P28264 1-440)
chain: MNNNELYVSLDIGTSNTKVIVGEMTDDSLNIIGVGNVPSEGLKKGSIVDIDETVHSIRKAFDQAERMVGFPLRKAIVGVNGNYINIQDTNGVVAVSSENKEIQVEDVRRVMEAAQVVSVPHEQLIVDVIPKQFIVDGRDEITDPKKMLGVRLEVEGTLITGSKTILHNLLRCVERAGIEITDICLQPLAAGSAALSKDEKNLGVALIDIGGGSTTIAVFQNGHLTSTRVIPLGGENITKDISIGLRTSTEEAERVKKQLGHAYYDEASEDEIFEVTVIGTNQKQTFTQQEAANIIEARVEEILEIVSEELRSMGITDLPGGFVLTGGQAAMPGVMSLAQDVLQNNVRVASPNYIGVRDPQYMTGVGLIQFACRNARIQGRKIGFKMPEEAIQEIAVSSSEEQEQHHHQNEVQQRPKGKQKTQAEHNKQSKMKKLLSMFWE
B4: YrbF (protein, UniProt O32052 1-89)
chain: MMTGTLGTLVPIILMFAVLYFLLIRPQQKQQKAVRQMQEELKKGDSVVTIGGLHGTVDSIDESKVVIKTGDNTRLTFDRRAIREVSAAE
B5: OppB (protein, UniProt P24138 1-311)
chain: MLKYIGRRLVYMIITLFVIVTVTFFLMQAAPGGPFSGEKKLPPEIEANLNAHYGLDKPLFVQYVSYLKSVAMWDFGPSFKYKGQSVNDLISSGFPVSFTLGAEAILLALALGVLFGVIAALYHNKWQDYTVAILTIFGISVPSFIMAAVLQYVFSMKLGLFPVAGWDSWAYTFLPSIALASMPMAFIARLSRSSMIEVLNSDYIRTAKAKGLSRPAVTVRHAIRNALLPVVTYMGPMAAQVLTGSFIIETIFGIPGLGAHFVNSITNRDYTVIMGVTVFFSVILLLCVLIVDVLYGIIDPRIKLSKAKKGA
B6: FhuD (protein, UniProt P37580 24-315)
chain: CGNNSESKGSASDSKGAETFTYKAENGNVKIPKHPKRVVVMADGYYGYFKTLGINVVGAPENVFKNPYYKGKTNGVENIGDGTSVEKVIDLNPDLIIVWTTQGADIKKLEKIAPTVAVKYDKLDNIEQLKEFAKMTGTEDKAEKWLAKWDKKVAAAKTKIKKAVGDKTISIMQTNGKDIYVFGKDFGRGGSIIYKDLGLQATKLTKEKAIDQGPGYTSISLEKLPDFAGDYIFAGPWQSGGDDGGVFESSIWKNLNAVKNGHVYKMDPIGFYFTDPISLEGQLEFITESLTK
B7: QoxB (protein, UniProt P34956 1-649)
chain: MKFKWDEFFVTGDPLILGAQVSIALSTIAIIFVLTYFKKWKWLWSEWITTVDHKKLGIMYIISAVIMLFRGGVDGLMMRAQLALPNNSFLDSNHYNEIFTTHGTIMIIFMAMPFLIGLINVVVPLQIGARDVAFPYLNNLSFWTFFVGAMLFNISFVIGGSPNAGWTSYMPLASNDMSPGPGENYYLLGLQIAGIGTLMTGINFMVTILKMRTKGMTLMRMPMFTWTTLITMVIIVFAFPVLTVALALLSFDRLFGAHFFTLEAGGMPMLWANLFWIWGHPEVYIVILPAFGIFSEIISSFARKQLFGYKAMVGSIIAISVLSFLVWTHHFFTMGNSASVNSFFSITTMAISIPTGVKIFNWLFTMYKGRISFTTPMLWALAFIPNFVIGGVTGVMLAMAAADYQYHNTYFLVSHFHYVLIAGTVFACFAGFIFWYPKMFGHKLNERIGKWFFWIFMIGFNICFFPQYFLGLQGMPRRIYTYGPNDGWTTLNFISTVGAFMMGVGFLILCYNIYYSFRYSTREISGDSWGVGRTLDWATSSAIPPHYNFAVLPEVKSQDAFLHMKEEKTELYPESKFKKIHMPSNSGRPFFMSVAFGLAGFGLVFEWYWMGVVGLIGVLLCMVLRSFEYDNGYYISVDEIKETERKISE
B8: HtpX (protein, UniProt O31657 1-298)
chain: MAKRIFLFILTNILVLTTIGIVLSVLSSVTGVGTYFTADGGIDPMALLVFSLVVGFVGSFTSLAISRWMAKTMMGVRVLNPKKHSLSYEEQQLVDRVHRLSRSAGLTKMPEVGIYRSPEVNAFATGPSKRRSLVAVSSGLLEQMDDAAVEGVLAHEVAHITNGDMVTMTLLQGIVNTFVVFLSRIAAWIASRFVKEDLAPIVHFIAMIIFQIVFSILGSLVVFAYSRHREFHADRGGADLAGKDKMIHALRTLKSYSSRILEDDQTAVQTLKINGKKRSSLFSTHPDLDERIRRLEAK
B9: GlcD (protein, UniProt P94535 1-470)
chain: MITKDVKEQLIQVSGPENFDDSNAGRLVYSYDATPQYQSMPDAVIAPRNTDEISRILTICSEHRVPIVPRGSGTNLCGGTCPTEGGLVLLFKHMNQILEIDEENLTATVQPGVITLDMIRAVESKGLFYPPDPSSMKISTIGGNINENSGGLRGLKYGVTRDYVIGLEVVLANGDIIRTGGKLAKDVAGYDLTRLFVGSEGTLGIVTEAIVKLVPKPETKKTLLALYENIDAAAQTVSDIIAAKIIPATLEFLDQPTLLVIEDYAKIGLPTSAKAVLLIEQDGPFETVERDMEKIEAICKKGDAVSVQTAQTEEEAFALTEARRSALSALARLKPTTILEDATVPRSEIANMVKAINDIAAKYDISICTFGHAGDGNLHPTCTTDIRNKDEMERVEQAFAEIFEKAIELGGTITGEHGVGEMKAPYLEMKLKKEGIDAMKALKAAFDPRNILNPGKMFAKDARKRVVAER
B10: SecY (protein, UniProt P16336 1-431)
chain: MFKTISNFMRVSDIRNKIIFTLLMLIVFRIGAFIPVPYVNAEALQAQSQMGVFDLLNTFGGGALYQFSIFAMGITPYITASIIIQLLQMDVVPKFTEWSKQGEVGRRKLAQFTRYFTIVLGFIQALGMSYGFNNLANGMLIEKSGVSTYLIIALVLTGGTAFLMWLGEQITSHGVGNGISIIIFAGIVSSIPKTIGQIYETQFVGSNDQLFIHIVKVALLVIAILAVIVGVIFIQQAVRKIAIQYAKGTGRSPAGGGQSTHLPLKVNPAGVIPVIFAVAFLITPRTIASFFGTNDVTKWIQNNFDNTHPVGMAIYVALIIAFTYFYAFVQVNPEQMADNLKKQGGYIPGVRPGKMTQDRITSILYRLTFVGSIFLAVISILPIFFIQFAGLPQSAQIGGTSLLIVVGVALETMKQLESQLVKRNYRGFMKN
B11: MsmX (protein, UniProt P94360 1-365)
chain: MAELRMEHIYKFYDQKEPAVDDFNLHIADKEFIVFVGPSGCGKSTTLRMVAGLEEISKGDFYIEGKRVNDVAPKDRDIAMVFQNYALYPHMTVYDNIAFGLKLRKMPKPEIKKRVEEAAKILGLEEYLHRKPKALSGGQRQRVALGRAIVRDAKVFLMDEPLSNLDAKLRVQMRAEIIKLHQRLQTTTIYVTHDQTEALTMATRIVVMKDGKIQQIGTPKDVYEFPENVFVGGFIGSPAMNFFKGKLTDGLIKIGSAALTVPEGKMKVLREKGYIGKEVIFGIRPEDIHDELIVVESYKNSSIKAKINVAELLGSEIMIYSQIDNQDFIARIDARLDIQSGDELTVAFDMNKGHFFDSETEVRIR
B12: AtpF (protein, UniProt P37814 1-170)
chain: MSQLPLELGLSFNGGDILFQLLAMLILLALLKKYALGPLLNIMKQREDHIAGEITSAEEKNKEAQQLIEEQRVLLKEARQESQTLIENAKKLGEKQKEEIIQAARAESERLKEAARTEIVKEKEQAVSALREQVASLSVMIASKVIEKELDEQAQEKLIQDYLKEVGESR
B13: QoxA (protein, UniProt P34957 26-321)
chain: CSNASVLDPKGPVAEQQSDLILLSIGFMLFIVGVVFVLFTIILVKYRDRKGKDNGSYNPEIHGNTFLEVVWTVIPILIVIALSVPTVQTIYSLEKAPEATKDKEPLVVYATSVDWKWVFSYPEQDIETVNYLNIPVDRPILFKISSADSMASLWIPQLGGQKYAMAGMLMDQYLQADKVGTYEGRNANFTGEHFADQEFDVNAVTEKDFNSWVKKTQNEAPKLTKEKYDELMLPENVDELTFSSTHLKYVDHGQDAEYAMEARKRLGYQAVSPHSKTDPFENVKKNEFKKSDDTEE

Each binder was assayed against T1, MeeF-FLAG (B. subtilis) (UniProt O34447) (assay: affinity purification with mass spectrometry; anti-FLAG M2 magnetic beads on lysates (1% Triton X-100) of B. subtilis grown overnight in LB with 50 uM Mn; 30 °C for 3 h; washed with 1X PBS; eluted by heating at 95 °C in 2X Laemmli sample buffer; LC-MS/MS; membrane proteins found in the sample but not in the untagged WT controls).
T1 sequence: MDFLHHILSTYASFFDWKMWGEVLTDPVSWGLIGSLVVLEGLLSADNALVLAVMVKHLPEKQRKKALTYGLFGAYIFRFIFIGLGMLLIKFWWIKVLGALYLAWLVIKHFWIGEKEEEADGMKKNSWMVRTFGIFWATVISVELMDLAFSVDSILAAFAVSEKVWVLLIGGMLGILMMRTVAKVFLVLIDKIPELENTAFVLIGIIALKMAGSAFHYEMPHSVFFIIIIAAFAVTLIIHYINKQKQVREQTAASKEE

binding, binds:
B1, B2, B3, B4, B5, B6, B7, B8, B9, B10, B11

These binders were tested against T2, MeeY-FLAG (B. subtilis) (UniProt O34997) in the same assay as above.
T2 sequence: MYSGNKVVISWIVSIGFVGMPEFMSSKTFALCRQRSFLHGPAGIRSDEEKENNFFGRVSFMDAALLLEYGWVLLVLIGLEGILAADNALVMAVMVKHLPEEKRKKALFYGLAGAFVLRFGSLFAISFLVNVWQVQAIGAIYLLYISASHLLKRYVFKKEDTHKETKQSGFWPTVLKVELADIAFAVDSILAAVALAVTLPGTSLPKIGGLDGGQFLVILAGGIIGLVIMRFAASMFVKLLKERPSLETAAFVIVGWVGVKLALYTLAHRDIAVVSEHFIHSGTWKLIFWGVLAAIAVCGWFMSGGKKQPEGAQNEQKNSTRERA

binding, binds:
B12, B13
